Consider 4 compounds from the odorant receptor screen of Mainland et al. (2015).

Values joined by “and” are separate entries in the source; they are usually repeats but may differ in a detail not shown here. Identical values can stand only once. The list shows a part of the results. Each value is one well over the wells without odorant, computed here; the data are noisy.

Among the test systems are OR51L1 clone 1534; OR51Q1 clone 1190; OR51S1 clone 1699; OR51T1 clone 1326; OR51V1 clone 1700; OR51V1 clone 1701; OR52A1 S272P clone 1151; OR52A4 clone 1719; OR52A5 clone 1568; OR52B2 clone 1210; OR52B4 clone 1508; OR52D1 clone 1164; OR52E1 clone 1113; OR52E5 P234L clone 1124; OR52E6 clone 1196; OR52E8 clone 1154.
What all share (experiment): odorant receptor activation (CRE luciferase / Renilla) (fold of no-odor wells); higher = more activation
Conditions in all cases: 100 µM

For test [1], the system named is OR51M1 H91Q/L124F/I193T/P245H/F307L clone 1121.
The subject of test [2] is OR52B6 T36A/L90H/A146T/H149R/V267I clone 1306.
In test [3] the test system is OR52E2 H174R/R264C clone 1184.
Test [4] has as its system OR52E4 V176I/R184M/R228H clone 1123.

As to `CCCCOC(C)=O` [butyl acetate], the odorant receptor activation with OR51L1 clone 1534 amounted to 0.971; in [1], 1.02; with OR51Q1 clone 1190 it was 0.811; in the test on OR51S1 clone 1699, 1.27; with OR51T1 clone 1326 it was 0.851; in the test with OR51V1 clone 1700, 0.687. Besides, the odorant receptor activation in the test on OR51V1 clone 1701 amounted to 0.731; with OR52A1 S272P clone 1151 it was 0.751; in the test on OR52A4 clone 1719, 0.496; in the test on OR52A5 clone 1568 it was 0.887; with OR52B2 clone 1210 it was 0.815; with OR52B4 clone 1508, 0.901. Besides, the odorant receptor activation in test [2] is 0.886; in the test on OR52D1 clone 1164 it was 0.898; in the test with OR52E1 clone 1113, 0.901; in [3] it was 0.858; in test [4], 0.859; in the test with OR52E5 P234L clone 1124 it was 1.14. Moreover, the odorant receptor activation in the test on OR52E6 clone 1196 and in the test on OR52E8 clone 1154 was 1.16 each time.
Take `CCOc1cc(C=O)ccc1O` [ethyl vanillin]: the odorant receptor activation in the test with OR51L1 clone 1534 was 0.867 and 2.01 and 1.17; in [1], 1.25; with OR51Q1 clone 1190, 1.02 and 1.08; with OR51S1 clone 1699 it was 0.637; in the test with OR51T1 clone 1326 it was 0.616 and 1.15; in the test with OR51V1 clone 1700 it was 0.627. The odorant receptor activation with OR51V1 clone 1701 was 0.876; in the test with OR52A1 S272P clone 1151, 1.6 and 1.11; in the test with OR52A4 clone 1719 it was 0.948; with OR52A5 clone 1568, 0.848; with OR52B2 clone 1210, 0.962 and 0.983; with OR52B4 clone 1508, 1.19 and 2.48 and 1.21. The odorant receptor activation in [2] is 1.13 and 0.843; in the test on OR52D1 clone 1164, 1.27 and 1.01; in the test with OR52E1 clone 1113 it was 0.754 and 1.03; in [3], 1.54 and 1.09; in test [4], 0.946; in the test with OR52E5 P234L clone 1124, 1.32. Also, the odorant receptor activation in the test on OR52E6 clone 1196 is 1.61 and 1.26; with OR52E8 clone 1154 it was 1.64 and 1.3.
As to `CCC(C)=O` [2-butanone], the odorant receptor activation was found to be 1.04 in the test on OR51L1 clone 1534; 1.02 in [1]; 0.714 with OR51Q1 clone 1190; 0.69 in the test with OR51S1 clone 1699; 1.02 in the test on OR51T1 clone 1326; 0.931 in the test on OR51V1 clone 1700. Besides, the odorant receptor activation was determined as 0.882 with OR51V1 clone 1701; 1.47 in the test on OR52A1 S272P clone 1151; 1.12 with OR52A4 clone 1719; 1.04 in the test on OR52A5 clone 1568; 0.978 with OR52B2 clone 1210; 1.19 in the test on OR52B4 clone 1508. Also, the odorant receptor activation in test [2] is 1.17; with OR52D1 clone 1164, 0.824; with OR52E1 clone 1113 it was 7.48; in [3], 0.668; in test [4] it was 0.861; in the test on OR52E5 P234L clone 1124, 0.751. The odorant receptor activation was 0.94 in the test with OR52E6 clone 1196 and 0.977 in the test with OR52E8 clone 1154.
In the case of `CS` [methanethiol], the odorant receptor activation is 1.03 in the test on OR51L1 clone 1534; 1 in test [1]; 0.914 in the test with OR51Q1 clone 1190; 0.795 with OR51S1 clone 1699; 0.623 with OR51T1 clone 1326; 0.722 in the test with OR51V1 clone 1700. Besides, the odorant receptor activation was 1.07 in the test with OR51V1 clone 1701; 1.08 in the test on OR52A1 S272P clone 1151; 0.783 with OR52A4 clone 1719; 0.75 in the test with OR52A5 clone 1568; 0.866 with OR52B2 clone 1210; 0.869 with OR52B4 clone 1508. Moreover, the odorant receptor activation is 0.16 in [2]; 0.855 in the test with OR52D1 clone 1164; 0.88 with OR52E1 clone 1113; 1.19 in test [3]; 0.874 in test [4]; 0.829 with OR52E5 P234L clone 1124. Moreover, the odorant receptor activation in the test with OR52E6 clone 1196 worked out at 1.01; in the test with OR52E8 clone 1154 it was 0.888.
